These are yes or no findings as the source states them, for the method shown. In cells and extracts the contact can be indirect. Some results given as binding are weak or reduced against the parent protein; the word gives no strength.
Key:
[1] = target: FLAG-tagged CDK12 (UniProt Q9NYV4); assay: co-IP; U251 cells transfected with FLAG-CDK12; lysates 24 h after transfection; immunoprecipitation with anti-FLAG antibody; Western blot with anti-FLAG or anti-GSK3β
[2] = target: FLAG-tagged CDK12 (UniProt Q9NYV4); assay: co-IP; HEK293T cells transfected with HA-GSK3β alone or with HA-GSK3β and FLAG-CDK12; lysates 24 h after transfection; immunoprecipitation with anti-FLAG antibody; Western blot with anti-HA or anti-FLAG

By UniProt entry, the sequences of proteins in these tests, tags left out.
UniProt Q9NYV4: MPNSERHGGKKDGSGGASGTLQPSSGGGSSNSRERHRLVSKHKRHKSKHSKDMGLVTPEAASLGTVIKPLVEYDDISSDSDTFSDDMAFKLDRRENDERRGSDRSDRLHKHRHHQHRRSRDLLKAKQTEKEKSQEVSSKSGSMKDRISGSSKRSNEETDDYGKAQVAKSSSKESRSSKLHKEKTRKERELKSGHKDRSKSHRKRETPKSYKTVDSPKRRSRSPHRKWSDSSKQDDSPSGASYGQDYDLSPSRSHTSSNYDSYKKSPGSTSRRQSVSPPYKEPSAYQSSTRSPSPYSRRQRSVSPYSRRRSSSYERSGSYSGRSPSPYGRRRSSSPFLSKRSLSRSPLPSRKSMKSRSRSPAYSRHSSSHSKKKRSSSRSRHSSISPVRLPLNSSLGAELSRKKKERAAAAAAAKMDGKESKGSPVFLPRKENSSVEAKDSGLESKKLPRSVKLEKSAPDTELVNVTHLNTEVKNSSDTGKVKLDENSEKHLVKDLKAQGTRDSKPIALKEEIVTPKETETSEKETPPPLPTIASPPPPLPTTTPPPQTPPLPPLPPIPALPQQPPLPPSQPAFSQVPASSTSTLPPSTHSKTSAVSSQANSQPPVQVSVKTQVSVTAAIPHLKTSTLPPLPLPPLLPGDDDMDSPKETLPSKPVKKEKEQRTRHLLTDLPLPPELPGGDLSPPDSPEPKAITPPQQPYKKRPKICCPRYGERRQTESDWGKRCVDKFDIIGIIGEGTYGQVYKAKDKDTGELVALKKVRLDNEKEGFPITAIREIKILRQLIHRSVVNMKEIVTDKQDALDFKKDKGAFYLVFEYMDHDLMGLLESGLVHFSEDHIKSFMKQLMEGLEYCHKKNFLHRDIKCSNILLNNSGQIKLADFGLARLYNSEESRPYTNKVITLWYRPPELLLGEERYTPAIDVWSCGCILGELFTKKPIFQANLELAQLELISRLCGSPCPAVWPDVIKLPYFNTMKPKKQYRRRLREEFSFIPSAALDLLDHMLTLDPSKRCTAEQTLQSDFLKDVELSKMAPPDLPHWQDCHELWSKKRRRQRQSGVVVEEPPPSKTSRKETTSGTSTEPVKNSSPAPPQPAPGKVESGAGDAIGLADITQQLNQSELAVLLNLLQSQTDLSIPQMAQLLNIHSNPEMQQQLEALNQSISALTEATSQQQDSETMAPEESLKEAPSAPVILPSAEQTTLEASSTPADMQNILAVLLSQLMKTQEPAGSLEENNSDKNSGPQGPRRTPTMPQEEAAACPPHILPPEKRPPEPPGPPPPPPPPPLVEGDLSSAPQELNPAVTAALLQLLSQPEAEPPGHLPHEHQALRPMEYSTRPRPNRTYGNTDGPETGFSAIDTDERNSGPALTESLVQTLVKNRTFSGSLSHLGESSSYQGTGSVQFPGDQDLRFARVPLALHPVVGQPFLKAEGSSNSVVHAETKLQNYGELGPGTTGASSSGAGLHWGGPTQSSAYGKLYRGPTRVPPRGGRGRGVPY
UniProt P49841: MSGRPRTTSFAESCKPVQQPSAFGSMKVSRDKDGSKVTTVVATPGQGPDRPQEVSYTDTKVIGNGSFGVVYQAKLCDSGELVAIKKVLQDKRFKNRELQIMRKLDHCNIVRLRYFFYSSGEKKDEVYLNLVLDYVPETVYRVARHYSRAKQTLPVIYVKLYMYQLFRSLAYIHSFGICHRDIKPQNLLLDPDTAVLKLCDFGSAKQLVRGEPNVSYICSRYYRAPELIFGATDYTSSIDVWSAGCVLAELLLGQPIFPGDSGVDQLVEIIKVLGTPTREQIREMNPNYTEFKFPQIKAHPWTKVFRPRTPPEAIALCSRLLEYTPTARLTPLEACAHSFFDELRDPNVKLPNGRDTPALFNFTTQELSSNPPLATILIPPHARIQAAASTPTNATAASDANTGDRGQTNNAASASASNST

binding [1]	binding [2]	Substance
binds		endogenous GSK3β (from UniProt P49841 1-420)
	binds	HA-tagged GSK3β (from UniProt P49841 1-420)
